# Measurements: article PMC12977621
# No constants are given. Whether binding was seen depends on the method and setting.
# Biological target: Shigella OspC2 (Shigella)
# Assay: two-hybrid; yeast MaV103 and MaV203, 96-well format; GAL4BD-OspC effector and GAL4AD-caspase; selection on medium lacking leucine, tryptophan and histidine with 40 mM 3-amino-1,2,4-triazole; growth scored after 7 days at 30°C
row,Binder,binding
1,"full-length human caspase 2 (protein, UniProt P42575 1-452) MAAPSAGSWSTFQHKELMAADRGRRILGVCGMHPHHQETLKKNRVVLAKQLLLSELLEHLLEKDIITLEMRELIQAKVGSFSQNVELLNLLPKRGPQAFDAFCEALRETKQGHLEDMLLTTLSGLQHVLPPLSCDYDLSLPFPVCESCPLYKKLRLSTDTVEHSLDNKDGPVCLQVKPCTPEFYQTHFQLAYRLQSRPRGLALVLSNVHFTGEKELEFRSGGDVDHSTLVTLFKLLGYDVHVLCDQTAQEMQEKLQNFAQLPAHRVTDSCIVALLSHGVEGAIYGVDGKLLQLQEVFQLFDNANCPSLQNKPKMFFIQACRGDETDRGVDQQDGKNHAGSPGCEESDAGKEKLPKMRLPTRSDMICGYACLKGTAAMRNTKRGSWYIEALAQVFSERACDMHVADMLVKVNALIKDREGYAPGTEFHRCKEMSEYCSTLCRHLYLFPGHPPT",no binding
2,"full-length human CASP4 (protein, UniProt P49662 1-377) MAEGNHRKKPLKVLESLGKDFLTGVLDNLVEQNVLNWKEEEKKKYYDAKTEDKVRVMADSMQEKQRMAGQMLLQTFFNIDQISPNKKAHPNMEAGPPESGESTDALKLCPHEEFLRLCKERAEEIYPIKERNNRTRLALIICNTEFDHLPPRNGADFDITGMKELLEGLDYSVDVEENLTARDMESALRAFATRPEHKSSDSTFLVLMSHGILEGICGTVHDEKKPDVLLYDTIFQIFNNRNCLSLKDKPKVIIVQACRGANRGELWVRDSPASLEVASSQSSENLEEDAVYKTHVEKDFIAFCSSTPHNVSWRDSTMGSIFITQLITCFQKYSWCCHLEEVFRKVQQSFETPRAKAQMPTIERLSMTRYFYLFPGN",no binding
3,"full-length human caspase 6 (protein, UniProt P55212 1-293) MSSASGLRRGHPAGGEENMTETDAFYKREMFDPAEKYKMDHRRRGIALIFNHERFFWHLTLPERRGTCADRDNLTRRFSDLGFEVKCFNDLKAEELLLKIHEVSTVSHADADCFVCVFLSHGEGNHIYAYDAKIEIQTLTGLFKGDKCHSLVGKPKIFIIQACRGNQHDVPVIPLDVVDNQTEKLDTNITEVDAASVYTLPAGADFLMCYSVAEGYYSHRETVNGSWYIQDLCEMLGKYGSSLEFTELLTLVNRKVSQRRVDFCKDPSAIGKKQVPCFASMLTKKLHFFPKSN",no binding
4,"full-length human caspase 7 (protein, UniProt P55210 1-303) MADDQGCIEEQGVEDSANEDSVDAKPDRSSFVPSLFSKKKKNVTMRSIKTTRDRVPTYQYNMNFEKLGKCIIINNKNFDKVTGMGVRNGTDKDAEALFKCFRSLGFDVIVYNDCSCAKMQDLLKKASEEDHTNAACFACILLSHGEENVIYGKDGVTPIKDLTAHFRGDRCKTLLEKPKLFFIQACRGTELDDGIQADSGPINDTDANPRYKIPVEADFLFAYSTVPGYYSWRSPGRGSWFVQALCSILEEHGKDLEIMQILTRVNDRVARHFESQSDDPHFHEKKQIPCVVSMLTKELYFSQ",no binding
5,"full-length human caspase 10 (protein, UniProt Q92851 1-521) MKSQGQHWYSSSDKNCKVSFREKLLIIDSNLGVQDVENLKFLCIGLVPNKKLEKSSSASDVFEHLLAEDLLSEEDPFFLAELLYIIRQKKLLQHLNCTKEEVERLLPTRQRVSLFRNLLYELSEGIDSENLKDMIFLLKDSLPKTEMTSLSFLAFLEKQGKIDEDNLTCLEDLCKTVVPKLLRNIEKYKREKAIQIVTPPVDKEAESYQGEEELVSQTDVKTFLEALPQESWQNKHAGSNGNRATNGAPSLVSRGMQGASANTLNSETSTKRAAVYRMNRNHRGLCVIVNNHSFTSLKDRQGTHKDAEILSHVFQWLGFTVHIHNNVTKVEMEMVLQKQKCNPAHADGDCFVFCILTHGRFGAVYSSDEALIPIREIMSHFTALQCPRLAEKPKLFFIQACQGEEIQPSVSIEADALNPEQAPTSLQDSIPAEADFLLGLATVPGYVSFRHVEEGSWYIQSLCNHLKKLVPRMLKFLEKTMEIRGRKRTVWGAKQISATSLPTAISAQTPRPPMRRWSSVS",no binding
